From the supplement of paper PMC9454738
Where “and” joins values, the source holds several entries; their conditions need not be identical. Identical values can stand only once. Counter-ions that a name gives are not always drawn. ± gives the standard deviation of the averaged measurements. The list shows a part of the results. This data set is noisy: repeats of one test often differ as much as different tests do.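 Triple-negative MDA-MB-231 breast cancer cells and their brain-metastatic MDA-MB-231BRM derivative each stably expressed empty vector, full-length GLI1 or truncated tGLI1. CellTiter-Blue measured viability at 48 h relative to 1% DMSO vehicle. Compounds reducing viability 20% more in tGLI1 cells than in vector and GLI1 cells counted as tGLI1-selective.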

Legend:
Experiment in all cases: cell viability relative to vehicle (DMSO) control (fraction); higher = more viable cells (less growth inhibition)
Details in all cases: treatment time 48 h
MDA-MB-231 GLI1 = test system: MDA-MB-231 GLI1
MDA-MB-231 Vector = test system: MDA-MB-231 Vector
MDA-MB-231 tGLI1 = test system: MDA-MB-231 tGLI1
MDA-MB-231BRM GLI1 = test system: MDA-MB-231BRM GLI1
MDA-MB-231BRM Vector = test system: MDA-MB-231BRM Vector
MDA-MB-231BRM tGLI1 = test system: MDA-MB-231BRM tGLI1

Row | Compound | cell viability (MDA-MB-231 GLI1; 0.05 µM) | cell viability (MDA-MB-231 GLI1; 0.5 µM) | cell viability (MDA-MB-231 GLI1; 5 µM) | cell viability (MDA-MB-231 Vector; 0.05 µM) | cell viability (MDA-MB-231 Vector; 0.5 µM) | cell viability (MDA-MB-231 Vector; 5 µM) | cell viability (MDA-MB-231 tGLI1; 0.05 µM) | cell viability (MDA-MB-231 tGLI1; 0.5 µM) | cell viability (MDA-MB-231 tGLI1; 5 µM) | cell viability (MDA-MB-231BRM GLI1; 0.05 µM) | cell viability (MDA-MB-231BRM GLI1; 0.5 µM) | cell viability (MDA-MB-231BRM GLI1; 5 µM) | cell viability (MDA-MB-231BRM Vector; 0.05 µM) | cell viability (MDA-MB-231BRM Vector; 0.5 µM) | cell viability (MDA-MB-231BRM Vector; 5 µM) | cell viability (MDA-MB-231BRM tGLI1; 0.05 µM) | cell viability (MDA-MB-231BRM tGLI1; 0.5 µM) | cell viability (MDA-MB-231BRM tGLI1; 5 µM)
1 | O=C(NCCCNc1nc(Nc2cccc(NC(=O)N3CCCC3)c2)ncc1I)c1cccs1 | 1.4 | 1 | 0.846 | 1.97 | 1.12 | 0.581 | 1.08 | 1.09 | 0.572 | 1.17 | 1.12 | 0.81 | 1.15 | 1.04 | 0.874 | 1.02 | 0.914 | 0.734
2 | CCN1CCN(Cc2ccc(-c3cc4c(N[C@H](C)c5ccccc5)ncnc4[nH]3)cc2)CC1 | 1.39 | 1.39 | 0.4 | 1.17 | 1.21 | 0.75 | 0.462 | 1.37 | 0.227 | 1.19 | 0.495 | 0.578 | 0.744 | 0.855 | 0.424 | 0.596 | 0.544 | 0.568
3 | CC(C)(C)c1nc(-c2cccc(NS(=O)(=O)c3c(F)cccc3F)c2F)c(-c2ccnc(N)n2)s1 | 1.17 ± 0.14 | 1.236 ± 0.0019 | 1.03 ± 0.26 | 1.18 ± 0.083 | 1.08 ± 0.078 | 0.8223 ± 0.0058 | 1.362 ± 0.01 | 1.09 ± 0.052 | 0.953 ± 0.19 | 1.01 ± 0.029 | 1.01 ± 0.024 | 0.954 ± 0.092 | 0.976 ± 0.054 | 1.01 ± 0.067 | 0.635 ± 0.19 | 1.007 ± 0.0076 | 0.997 ± 0.056 | 0.878 ± 0.17
4 | Cc1cc(Nc2nc(N[C@@H](C)c3ccc(F)cc3)c(C#N)cc2F)n[nH]1 | 1.39 | 0.596 | 0.464 | 1.42 | 0.581 | 0.448 | 1.27 | 0.62 | 0.45 | 1.14 | 1.36 | 0.915 | 1.14 | 1.24 | 0.96 | 0.661 | 1.25 | 0.854
5 | Cn1c(=O)c(F)c(Nc2ccc(I)cc2F)c2c(=O)n(C[C@@H](O)CO)cnc21 | 0.783 | 0.672 | 0.444 | 0.64 | 0.618 | 0.674 | 0.854 | 0.603 | 0.47 | 1.06 | 1.05 | 0.888 | 1.09 | 1.11 | 0.836 | 1.16 | 0.952 | 0.821
6 | CN1CCN(C2CCN(C(=O)Nc3cc(Oc4ccc(NC(=O)C5(C(=O)Nc6ccc(F)cc6)CC5)c(F)c4)ccn3)CC2)CC1 [Golvatinib (E7050)] | 1.01 | 1.07 | 1.01 | 1.01 | 1.06 | 0.766 | 1.02 | 0.999 | 0.744 | 0.974 | 0.973 | 0.915 | 1.06 | 1.03 | 0.898 | 0.987 | 1.01 | 0.833
7 | CCc1ccc(/C=C2/SC(=S)NC2=O)cc1 | 1.13 | 1.82 | 1.08 | 1.1 | 1.24 | 1.3 | 0.903 | 1.26 | 1.17 | 0.958 | 0.999 | 1.01 | 1.06 | 1.05 | 1.07 | 1.04 | 0.973 | 1
8 | O=C1NCCc2[nH]c(-c3ccncc3)cc21 | 1.3 | 1.24 | 0.185 | 1.31 | 1.2 | 0.281 | 1.43 | 1.1 | 0.227 | 1.03 | 1.09 | 1.01 | 1.11 | 1.16 | 0.953 | 1.13 | 1.19 | 0.894
9 | C#Cc1cccc(Nc2ncnc3cc(OCCOC)c(OCCOC)cc23)c1 [Erlotinib HCl] | 1.33 | 1.05 | 1.17 | 1.64 | 1.41 | 1.36 | 1.35 | 1.06 | 1.27 | 1.07 | 0.93 | 0.885 | 1.02 | 0.912 | 0.854 | 1.01 | 0.983 | 0.905
10 | CN(c1ncccc1CNc1nc(Nc2ccc3c(c2)CC(=O)N3)ncc1C(F)(F)F)S(C)(=O)=O | 1.31 and 0.918 | 1.44 and 1.21 | 0.158 and 0.142 | 1.31 and 0.747 | 1.5 and 1.09 | 0.294 and 0.261 | 1.47 and 0.888 | 1.34 and 1.19 | 0.166 and 0.172 | 1.07 | 1 and 0.953 | 0.764 and 0.74 | 0.994 and 1.1 | 1.06 and 0.948 | 0.764 and 0.714 | 1.08 and 0.982 | 1.02 and 0.926 | 0.718 and 0.674
11 | CC[C@@H]1C(=O)N(C)c2cnc(Nc3ccc(C(=O)NC4CCN(C)CC4)cc3OC)nc2N1C1CCCC1 | 0.254 | 0.352 | 0.0913 | 0.341 | 0.31 | 0.171 | 0.212 | 0.287 | 0.066 | 1.13 | 1.01 | 0.889 | 1.05 | 1.02 | 0.843 | 1.04 | 0.942 | 0.733
12 | Nc1cc(C(F)(F)F)c(-c2cc(N3CCOCC3)nc(N3CCOCC3)n2)cn1 [BKM120 (NVP-BKM120, Buparlisib)] | 0.871 | 0.671 | 0.0322 | 1 | 1.05 | 0.121 | 1.14 | 0.755 | 0.128 | 0.988 | 1.1 | 0.96 | 1.04 | 1.08 | 0.928 | 0.967 | 0.986 | 0.889
13 | CNC(=O)c1ccc(Nc2ncc(C(F)(F)F)c(NCc3nccnc3N(C)S(C)(=O)=O)n2)cc1 | 2.14 | 3.18 | 0.762 | 1.42 | 1.3 | 0.283 | 1.37 | 1.4 | 0.308 | 0.831 | 0.72 | 0.661 | 0.883 | 0.711 | 0.608 | 1.23 | 0.954 | 0.848
